Experimental data from publication PMC12302804.
No constants are given. Whether binding was seen depends on the method and setting. Binding seen in cells or lysates may run through a third protein. Some results given as binding are weak or reduced against the parent protein; the word gives no strength. For some assays here: Where a sequence is shown, tags or fusion partners need not be part of it.

T1: Aspartate/Glutamate Carrier 1 (AGC1) (human (endogenous in HCT116)) (UniProt O75746)
T1 sequence: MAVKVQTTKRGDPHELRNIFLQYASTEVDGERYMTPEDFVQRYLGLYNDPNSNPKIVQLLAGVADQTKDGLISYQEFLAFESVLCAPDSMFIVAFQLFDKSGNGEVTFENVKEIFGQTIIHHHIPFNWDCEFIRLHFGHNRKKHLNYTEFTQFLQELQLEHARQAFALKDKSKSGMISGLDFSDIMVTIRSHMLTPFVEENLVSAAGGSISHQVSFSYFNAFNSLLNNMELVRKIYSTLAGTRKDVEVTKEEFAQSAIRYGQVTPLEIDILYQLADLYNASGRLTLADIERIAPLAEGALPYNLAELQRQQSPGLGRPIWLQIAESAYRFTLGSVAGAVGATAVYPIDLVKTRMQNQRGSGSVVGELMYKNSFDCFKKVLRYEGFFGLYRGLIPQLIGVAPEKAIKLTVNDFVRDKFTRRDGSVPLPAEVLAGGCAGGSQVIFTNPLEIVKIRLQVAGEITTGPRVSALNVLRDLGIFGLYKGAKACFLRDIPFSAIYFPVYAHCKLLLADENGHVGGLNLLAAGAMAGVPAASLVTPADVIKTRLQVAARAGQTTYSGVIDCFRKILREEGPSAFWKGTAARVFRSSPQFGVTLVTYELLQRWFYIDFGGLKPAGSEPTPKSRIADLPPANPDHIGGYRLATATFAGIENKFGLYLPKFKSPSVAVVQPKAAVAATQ

B1: flag-tagged Makorin Ring Finger Protein 1 (MKRN1) (protein, UniProt Q9UHC7 1-482)
chain: MAEAATPGTTATTSGAGAAAATAAAASPTPIPTVTAPSLGAGGGGGGSDGSGGGWTKQVTCRYFMHGVCKEGDNCRYSHDLSDSPYSVVCKYFQRGYCIYGDRCRYEHSKPLKQEEATATELTTKSSLAASSSLSSIVGPLVEMNTGEAESRNSNFATVGAGSEDWVNAIEFVPGQPYCGRTAPSCTEAPLQGSVTKEESEKEQTAVETKKQLCPYAAVGECRYGENCVYLHGDSCDMCGLQVLHPMDAAQRSQHIKSCIEAHEKDMELSFAVQRSKDMVCGICMEVVYEKANPSERRFGILSNCNHTYCLKCIRKWRSAKQFESKIIKSCPECRITSNFVIPSEYWVEEKEEKQKLILKYKEAMSNKACRYFDEGRGSCPFGGNCFYKHAYPDGRREEPQRQKVGTSSRYRAQRRNHFWELIEERENSNPFDNDEEEVVTFELGEMLLMLLAAGGDDELTDSEDEWDLFHDELEDFYDLDL
B2: Makorin Ring Finger Protein 1 (MKRN1), endogenous (protein, UniProt Q9UHC7 1-482)
chain: B1 chain

What was measured:
[1] = target: T1, Aspartate/Glutamate Carrier 1 (AGC1) (human (endogenous in HCT116)); test: co-IP; exogenous, reciprocal; MKRN1-OE HCT116 cells lysed in native lysis buffer; anti-FLAG M2 affinity gel, or 3 µg antibody with rProtein A/G MagBeads, 4 °C overnight; immunoblot
[2] = target: T1, Aspartate/Glutamate Carrier 1 (AGC1) (human (endogenous in HCT116)); test: co-IP; endogenous, reciprocal; anti-MKRN1 (Bethyl A300-990A-M) or anti-AGC1 (Proteintech 26804-1-AP) with rProtein A/G MagBeads; IgG as control; immunoblot

| Binder | binding [1] | binding [2] |
| --- | --- | --- |
| B1 | binds |  |
| B2 |  | binds |
